# Experimental data: PubChem BioAssay (NCATS)
# Chains of the proteins cited; added tags and fusions are not shown. Lines headed by an entry give the natural chain unless they say otherwise; changes in a name come on top.
# UniProt P21964: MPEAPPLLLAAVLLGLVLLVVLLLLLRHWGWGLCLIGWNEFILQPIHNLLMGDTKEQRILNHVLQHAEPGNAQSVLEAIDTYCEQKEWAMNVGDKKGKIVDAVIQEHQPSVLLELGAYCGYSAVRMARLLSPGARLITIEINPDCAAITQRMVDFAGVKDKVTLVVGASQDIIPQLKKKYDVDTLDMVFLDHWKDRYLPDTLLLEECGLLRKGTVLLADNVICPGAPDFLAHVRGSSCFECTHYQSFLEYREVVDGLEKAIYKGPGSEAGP
# Values joined by “and” are separate entries in the source; they are usually repeats but may differ in a detail not shown here. Identical values can stand only once. The list shows a part of the results. Further columns of the screen follow, without active or inactive calls. Most of these compounds were active or inconclusive in the main read-out, so they are no random draw. For some of these results: Potencies come from curve fits of mixed quality, noted in brackets.
# Assays:
# [1] = Validation of Assay for Modulators of Lamin A Splicing (AID 1459); conditions: Lamin A splicing dual RFP/GFP fluorescence reporter, ratio
# How it was run: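 S3 HeLa cells stably expressing a lamin A-EGFP splicing minigene and DsRed2 were seeded at 600 cells/well in Opti-MEM with 2% FBS, pin-dosed, and incubated 48 hrs at 37 °C, 5% CO2. Laser-scanning cytometry (488 nm) gave GFP/RFP total intensity ratio.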
# [2] = qHTS Assay for Lipid Storage Modulators (AID 1519); conditions: Drosophila S3 cells, BODIPY lipid droplet/cell ratio, laser cytometry, cells loaded with oleic acid
# How it was run: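 Cells seeded at 5,000 per well were treated with compounds over a concentration series and loaded with oleic acid (400 uM, as added). Lipid droplet fluorescence (488 nm excitation, 500-530 nm channel) was read by laser-scanning cytometry and normalized to 20 uM Triacsin C.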
# [3] = qHTS Assay for Modulators of Human Peripheral Myelin Protein 22 (PMP22) Expression/Activity (AID 1967); conditions: Cell-based PMP22 reporter, dual-color luciferase ratio
# How it was run: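 MSC80 mouse Schwann cells stably carrying Pmp22 promoter–green click beetle luciferase plus EF-alpha–red luciferase control were dosed for 24h at 37 °C. Dual-colour luminescence was filter-overlap corrected; %Activity came from green/red ratio versus untreated cells.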
# [4] = Nrf2 qHTS screen for inhibitors: Validation (AID 493153); conditions: A549 ARE-Fluc reporter, 18-24 h; AC50: CellTiter-Fluor fluorescence read, measured here: cytotoxicity CellTiter-Fluor AC50; viability change: measured here: cytotoxicity max response
# How it was run: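 Dose-response validation uses reporter A549 cells with firefly luciferase under an antioxidant response element. Compounds stay on cells 18-24 h at 37°C, and luminescence indicates Nrf2-driven transcription.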
# [5] = target: Catechol O-methyltransferase (Homo sapiens) (UniProt P21964); assay: Confirmatory Screen for Target Class Profiling of Small Molecule Inhibitors of Methyltransferases (AID 1745852); conditions: MTase-Glo luminescence, SAH detection, recombinant enzyme; measured here: COMT inhibition potency
# [6] = qHTS Validation Assay to Find Inhibitors of Chronic Active B-Cell Receptor Signaling (AID 485345); conditions: ABC-DLBCL cells, chronic BCR signaling reporter; measured here: CBR control luciferase (viability counter)
# How it was run: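 TMD8 ABC-DLBCL cells with dox-inducible green luciferase–IκBα fusion and red native luciferase; compounds 46 uM–3 nM, 4 h at 37C with doxycycline in 0.5% FBS IMDM. Green/red ratio normalized to basal and 10 uM MG-132.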
# [7] = qHTS assay for small molecule antagonists of peroxisome proliferator-activated receptor delta signaling (AID 588535); conditions: HEK293T PPARd-UAS-bla, beta-lactamase FRET ratio, 18 h; 460 nm channel;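 further: cells co-treated with a PPAR-delta agonist as stimulator during compound exposure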
# How it was run: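 GeneBLAzer PPAR-delta-UAS-bla HEK293T cells in medium with 2% charcoal/dextran FBS were preincubated 5 hrs at 37 C, then given compounds, incubated 18 hrs at 37 C, and read by CCF4 beta-lactamase fluorescence; IC50 from Hill fits.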
# [8] = qHTS for identification of novel therapeutic agents for treatment of microphthalmiaassociated transcription factor (MiT) renal cell carcinoma (RCC) (AID 1963991); conditions: CellTiter-Glo, 48 h; for z-score: stronger effect = lower value
# How it was run: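 Three TFE3-fusion RCC cell lines (UOK109, UOK124, UOK145), 500 cells/well, were exposed to the 1912-compound MIPE 4.0 library for 48 hours at 37 C. Viability was read by CellTiter-Glo luminescence, normalised to DMSO (100%) and empty wells (0%), with 11-concentration curve fits.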
# [9] = measured here: cell count channel max response
# [10] = measured here: cell number channel AC50
# [11] = measured here: lipid (BODIPY) channel AC50
# [12] = measured here: lipid channel max response
# [13] = measured here: red reporter channel AC50, EF-alpha promoter control reporter in MSC80 mouse Schwann cells
# [14] = measured here: green reporter channel AC50, mouse Pmp22 promoter in mouse Schwann cells
smiles,measurement,setting,value
CN1C[C@H](CNC(=O)OCc2ccccc2)C[C@@H]2c3cccc4c3c(cn4C)C[C@H]21,AC50,[1]; measured here: GFP channel,"7.94 µM [falling, partial curve]"
same,AC50,[1]; measured here: RFP channel,"7.94 µM [falling, partial curve]"
same,max response,[2]; [9],93.4%
same,AC50,[2]; [10],"7.08 µM [rising, partial curve]"
same,AC50,[2]; [11],"7.94 µM [rising, partial curve]"
same,max response,[2]; [12],122%
same,AC50,[3]; [13],"30.1 µM [rising, single point]"
same,viability change,[4],-2.78%
NC(N)=NOCCC(N)C(=O)O (stereo unspecified),AC50,[1]; measured here: GFP channel,"28.2 µM [falling, partial curve]"
same,AC50,[1]; measured here: RFP channel,"28.2 µM [falling, partial curve]"
C=CCN1CCc2cccc3c2C1Cc1ccc(O)c(O)c1-3 (stereo unspecified),AC50,[1]; measured here: GFP channel,"35.5 µM [falling, single point]"
same,AC50,[1]; measured here: RFP channel,"20 µM [falling, partial curve]"
same,max response,[2]; [9],-57.1%
same,AC50,[2]; [10],"0.2 µM [falling, full curve, poor fit]"
same,AC50,[2]; [11],"0.141 µM [falling, full curve, poor fit]"
same,max response,[2]; [12],-57.9%
same,AC50,[3]; [14],"67.5 µM [falling, partial curve]"
same,AC50,[3]; [13],"47.8 µM [falling, partial curve, poor fit]"
C[C@]12CC[C@H](OS(=O)(=O)O)CC1=CCC1C2CC[C@]2(C)C(=O)CC[C@@H]12 (stereo partly specified),AC50,[1]; measured here: GFP channel,"25.1 µM [falling, single point]"
same,AC50,[1]; measured here: RFP channel,"25.1 µM [falling, single point]"
same,max response,[2]; [9],39.2%
same,max response,[2]; [12],39.1%
same,AC50,[3]; [13],"75.7 µM [falling, single point]"
C[N+]1(C)C2CCC1CC(OC(=O)c1c[nH]c3ccccc13)C2 (stereo unspecified),AC50,[1]; measured here: GFP channel,"35.5 µM [falling, single point]"
same,AC50,[1]; measured here: RFP channel,"25.1 µM [falling, single point]"
same,max response,[2]; [9],44.1%
same,max response,[2]; [12],41%
same,AC50,[3]; [14],"53.6 µM [falling, partial curve]"
same,AC50,[3]; [13],"75.7 µM [falling, single point]"
CNCCc1ccc(O)c(O)c1,AC50,[1]; measured here: GFP channel,"35.5 µM [falling, single point]"
same,AC50,[1]; measured here: RFP channel,"22.4 µM [falling, partial curve, poor fit]"
same,max response,[2]; [9],46%
same,AC50,[2]; [10],"7.94 µM [falling, full curve, poor fit]"
same,AC50,[2]; [11],"7.94 µM [falling, full curve, poor fit]"
same,max response,[2]; [12],49.1%
same,AC50,[3]; [14],"75.7 µM [falling, partial curve]"
same,AC50,[3]; [13],"67.5 µM [falling, partial curve]"
same,IC50,[5],"13.7 µM [rising, partial curve]"
COc1ccc(Cc2nccc3cc(OC)c(OC)cc23)cc1OC,AC50,[1]; measured here: GFP channel,"10 µM [falling, partial curve, poor fit]"
same,AC50,[1]; measured here: RFP channel,"20 µM [falling, partial curve, poor fit]"
same,AC50,[2]; [10],"12.6 µM [falling, single point] and 708 nM [rising, full curve] and 12.6 µM [falling, partial curve, poor fit]"
same,AC50,[2]; [11],"14.1 µM [falling, single point] and 631 nM [rising, full curve] and 12.6 µM [falling, partial curve, poor fit]"
same,AC50,[3]; [14],"33.8 µM [falling, partial curve]"
same,AC50,[3]; [13],"37.9 µM [falling, partial curve]"
Clc1ccc(C(c2ccc(Cl)cc2)n2cc[n+](CC(OCc3ccc(Cl)cc3Cl)c3ccc(Cl)cc3Cl)c2)cc1 (stereo unspecified),AC50,[1]; measured here: GFP channel,"14.1 µM [falling, partial curve]"
same,AC50,[1]; measured here: RFP channel,"14.1 µM [falling, partial curve]"
same,max response,[2]; [9],-103%
same,max response,[2]; [12],-112%
same,AC50,[3]; [14],"37.9 µM [falling, full curve]"
same,AC50,[3]; [13],"37.9 µM [falling, full curve]"
same,AC50,[4],"18.4 µM [falling, partial curve, poor fit]"
same,viability change,[4],-26.9%
CCCN1CCc2cc(O)cc3c2C1Cc1ccc(O)c(O)c1-3 (stereo unspecified),AC50,[1]; measured here: GFP channel,"15.8 µM [falling, single point]"
same,AC50,[1]; measured here: RFP channel,"11.2 µM [falling, partial curve, poor fit]"
same,max response,[2]; [9],78.3%
same,AC50,[2]; [11],"22.4 µM [falling, partial curve, poor fit]"
same,max response,[2]; [12],81.2%
same,AC50,[3]; [14],"60.1 µM [falling, partial curve]"
same,AC50,[3]; [13],"75.7 µM [falling, partial curve]"
NC(=O)c1ccc(OCC(O)CN2CC=C(c3ccc(F)cc3)CC2)cc1 (stereo unspecified),AC50,[1]; measured here: GFP channel,"5.62 µM [falling, single point]"
same,AC50,[1]; measured here: RFP channel,"5.62 µM [falling, single point]"
same,AC50,[3]; [14],"95.3 µM [falling, single point]"
same,AC50,[3]; [13],"33.8 µM [falling, partial curve, poor fit]"
O=C(O)CCCc1ccc(N(CCCl)CCCl)cc1,AC50,[1]; measured here: GFP channel,"15.8 µM [falling, single point]"
same,AC50,[1]; measured here: RFP channel,"15.8 µM [falling, single point]"
same,max response,[2]; [9],39.2%
same,max response,[2]; [12],37.5%
same,AC50,[3]; [14],"1.9 µM [falling, full curve]"
same,AC50,[3]; [13],"33.8 µM [falling, partial curve]"
same,AC50,[6],"4.61 µM [rising, full curve, poor fit]"
same,max response,[7],65.5%
same,z-score,"[8]; TFE3-RCC UOK109 viability, measured here: UOK109 Z-AUC",-0.0979
same,z-score,"[8]; TFE3-RCC viability, measured here: UOK124 Z-AUC",-0.516
same,AC50,"[8]; TFE3-RCC viability, measured here: UOK124 cell viability","7.43 µM [rising, single point]"
same,z-score,"[8]; TFE3-RCC viability, measured here: UOK145 Z-AUC",-0.504
same,AC50,"[8]; TFE3-RCC viability, measured here: UOK145 cell viability","37.2 µM [falling, partial curve, poor fit]"
